Source: paper doi:10.1101/2024.09.19.614007 (bioRxiv, 2024)
Results are given in words; binding and its absence hold for the method and conditions named. Some entries that bind do so weakly or less than the wild type.

Key:
[1] = biological target: Escherichia coli glutamate kinase (Escherichia coli) (UniProt P0A7B5); experiment: negative-stain electron microscopy
[2] = biological target: truncated-EcGK (PUA domain deletion mutant, EcGK truncated after residue 274) (Escherichia coli) (UniProt P0A7B5); experiment: negative-stain electron microscopy

Row | binding [1] | Binder | binding [2]
1 | binds weakly | Escherichia coli glutamate kinase (enzyme, UniProt P0A7B5 1-367, looked up) MSDSQTLVVKLGTSVLTGGSRRLNRAHIVELVRQCAQLHAAGHRIVIVTSGAIAAGREHLGYPELPATIASKQLLAAVGQSRLIQLWEQLFSIYGIHVGQMLLTRADMEDRERFLNARDTLRALLDNNIVPVINENDAVATAEIKVGDNDNLSALAAILAGADKLLLLTDQKGLYTADPRSNPQAELIKDVYGIDDALRAIAGDSVSGLGTGGMSTKLQAADVACRAGIDTIIAAGSKPGVIGDVMEGISVGTLFHAQATPLENRKRWIFGAPPAGEITVDEGATAAILERGSSLLPKGIKSVTGNFSRGEVIRICNLEGRDIAHGVSRYNSDALRRIAGHHSQEIDAILGYEYGPVAVHRDDMITR | –
2 | – | truncated-EcGK (PUA domain deletion mutant, EcGK truncated after residue 274) (domain or fragment, UniProt P0A7B5 1-274) MSDSQTLVVKLGTSVLTGGSRRLNRAHIVELVRQCAQLHAAGHRIVIVTSGAIAAGREHLGYPELPATIASKQLLAAVGQSRLIQLWEQLFSIYGIHVGQMLLTRADMEDRERFLNARDTLRALLDNNIVPVINENDAVATAEIKVGDNDNLSALAAILAGADKLLLLTDQKGLYTADPRSNPQAELIKDVYGIDDALRAIAGDSVSGLGTGGMSTKLQAADVACRAGIDTIIAAGSKPGVIGDVMEGISVGTLFHAQATPLENRKRWIFGAPP | no binding (tested: about 2 μM)
